Data reported in PMC7819943, “Rice protein-binding microarrays: a tool to detect cis-acting elements near promoter regions in rice”.
Some of the results follow.

Protein sequences, listed by entry. Tags and fused reporters are not part of them.
UniProt Q0JBA9, entry or part of it: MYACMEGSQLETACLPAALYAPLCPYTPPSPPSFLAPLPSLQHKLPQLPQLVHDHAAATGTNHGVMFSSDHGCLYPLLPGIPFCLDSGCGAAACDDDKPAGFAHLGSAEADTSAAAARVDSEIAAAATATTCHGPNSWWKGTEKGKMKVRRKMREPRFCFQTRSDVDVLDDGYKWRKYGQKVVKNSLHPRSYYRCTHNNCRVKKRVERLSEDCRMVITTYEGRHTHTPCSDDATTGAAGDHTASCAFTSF

target: OsWRKY34 (Oryza sativa, UniProt Q0JBA9 1-250); assay: protein-binding microarray (RPBM); PBS, 2% BSA, 51.3 ng/ul salmon testes DNA, 50 uM zinc acetate, 200 nM TF, 25 C, 1 h; high values mean tight binding; details: protein: recombinant; tags: N-terminal polyhistidine and DsRed monomer fusion (pET32a); label: CyDye5-dUTP incorporated in the synthesized complementary strand; 3' TTTTT single-stranded linker to array surface; dsDNA, one strand shown
How it was run: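 Per-feature fluorescence intensity (arbitrary units), read on an Axon 4000B scanner, is the binding signal. Transcription factors carrying an N-terminal polyhistidine tag and DsRed fusion were expressed in E. coli BL21-CodonPlus and purified on Ni–NTA. A custom Agilent array, made double-stranded by primer extension with Cy5-dUTP and blocked with 2% BSA, was incubated with 200 nM protein in PBS, 2% BSA, salmon testes DNA and 50 µM zinc acetate at 25 °C for 1 h and then washed.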

Going from “ACCTGTAGTTGCCAATCAAACATGTCTTACGGCCTGTTTGCGGAGTCACCTAGTGCAG” to “CTGCATACCGAGACGTTATTCCAAGCTCGCATTGAACTGCCGGAGTCACCTAGTGCAG”, the binding signal rises from 8300 fluorescence intensity (a.u.) to 8910 fluorescence intensity (a.u.).

First: GTCGCGCTATATATACCCCTCACTCGCTGCGATTTTACAGCGGAGTCACCTAGTGCAG
Second: TTTGTTTGCAGCTGCTCTCTTGTCCTTCTTCTTCGCTATTCGGAGTCACCTAGTGCAG
The binding signal of the first is lower: 8400 fluorescence intensity (a.u.) for the first, 11500 fluorescence intensity (a.u.) for the second.

Going from “AGTTCCTCATCAAATCACTTGATAAATGTATAATTCCTTTCGGAGTCACCTAGTGCAG” to “TCCATCAGTTTTGTGAACTCTGTCTGTCACTCGCTCAGCACGGAGTCACCTAGTGCAG”, the binding signal rises from 8300 fluorescence intensity (a.u.) to 8940 fluorescence intensity (a.u.).

Going from “TCAATTCCGTTTCTTGGTTCGTCGCAGAAGCCTCAAGCTCCGGAGTCACCTAGTGCAG” to “CCGCCGCCGCCTTGTCGCCCGCCGCCTACTCTCTCGCCTCCGGAGTCACCTAGTGCAG”, the binding signal falls from 8330 fluorescence intensity (a.u.) to 8080 fluorescence intensity (a.u.).

Compared with “ACTCAGTTTCGTGCATGGATCTTACGAAGGTCAGGGGAGGCGGAGTCACCTAGTGCAG”, “GTATTTTCATCTGTTTGTTCGACACGGTTGAGTGCACGACCGGAGTCACCTAGTGCAG” is lower in binding signal: 8380 fluorescence intensity (a.u.) for the first, 8120 fluorescence intensity (a.u.) for the second.

First: CGGCTCGACCCGATGCTGTGGATTTCCGTTGCTACTATACCGGAGTCACCTAGTGCAG
Second: GACATAAGTTTATTATCTATATCCATAGTACGTTTAATCCCGGAGTCACCTAGTGCAG
The binding signal of the first is lower: 8400 fluorescence intensity (a.u.) for the first, 10100 fluorescence intensity (a.u.) for the second.

Going from “ACCACTGATTCGCCCTGTTTACAGCAAGTTGCTCTGTGTTCGGAGTCACCTAGTGCAG” to “CCAAGTGTAGCCGTAGATATCTGTGTCCAACATTTGACCACGGAGTCACCTAGTGCAG”, the binding signal falls from 10500 fluorescence intensity (a.u.) to 8220 fluorescence intensity (a.u.).

Compared with “TATTTGCGCCGATTCGTTTTTGTTCCGTTTTCGGTTTTGACGGAGTCACCTAGTGCAG”, “AATCTATTAAAAAAATTAGGGGTGGGTAGATATGTTATACCGGAGTCACCTAGTGCAG” is lower in binding signal: 12800 fluorescence intensity (a.u.) for the first, 11400 fluorescence intensity (a.u.) for the second.

First: AAGCCCAACGTGCTTCATCTCTTCTTCTATCTTATCTTCTCGGAGTCACCTAGTGCAG
Second: ATTGTATTTCGATGAAATCCGTGTTTATGCGATTATATGACGGAGTCACCTAGTGCAG
The binding signal of the first is lower: 8190 fluorescence intensity (a.u.) for the first, 8210 fluorescence intensity (a.u.) for the second.

Compared with “CCTCGCCTCACCTTCAAATACGAGCTGCCTCCACTGCCTCCGGAGTCACCTAGTGCAG”, “CTTTCGTTTCTTTTTTTTTTGCCCCTCGTTTTGCGTTTTCCGGAGTCACCTAGTGCAG” is higher in binding signal: 9050 fluorescence intensity (a.u.) for the first, 10900 fluorescence intensity (a.u.) for the second.

First: GATTGGATAGTGTGATTTTTCGCCTCGGCATTTGGTGGGCCGGAGTCACCTAGTGCAG
Second: TCCTTCCCACTCCCACCACCACCACTGCCTCTTCCTCTTCCGGAGTCACCTAGTGCAG
The binding signal of the first is lower: 8040 fluorescence intensity (a.u.) for the first, 10600 fluorescence intensity (a.u.) for the second.

Compared with “TTTTTGTTTTTGTTTGCCTTTGATCTTTGCAAGAAGTTACCGGAGTCACCTAGTGCAG”, “GTCCAACCCCTGCTTTCCTGCCTGTCCATACCGATCATGGCGGAGTCACCTAGTGCAG” is higher in binding signal: 8920 fluorescence intensity (a.u.) for the first, 9060 fluorescence intensity (a.u.) for the second.

Going from “GCTCTTCATCTTGTTGCTTCTTCCCTCTTTGAATTTCATTCGGAGTCACCTAGTGCAG” to “ACGGTTTTATCTTGTCACTCGGGTGTTGCTAGGGCACGATCGGAGTCACCTAGTGCAG”, the binding signal falls from 8950 fluorescence intensity (a.u.) to 8440 fluorescence intensity (a.u.).

Compared with “CCCATTACTCCTGTAGTCGAGGGGTTTGCTATTCTGGCTCCGGAGTCACCTAGTGCAG”, “CTTTGTTGTTTTCTTCTGTTAGTGTCTGTATTATTCATTACGGAGTCACCTAGTGCAG” is higher in binding signal: 9710 fluorescence intensity (a.u.) for the first, 9880 fluorescence intensity (a.u.) for the second.

Compared with “ACACACTGTCACCTCAGCTGACCTCTGATGATCAACGAAACGGAGTCACCTAGTGCAG”, “AGATACATACGCCCACCCGCCGCGCCCACTTCCGTCCAAACGGAGTCACCTAGTGCAG” is lower in binding signal: 9560 fluorescence intensity (a.u.) for the first, 8490 fluorescence intensity (a.u.) for the second.

First: CAACCTCTTGCTAACTTTCCTTTGAGTCTATCTCTCTCATCGGAGTCACCTAGTGCAG
Second: AGTCCAGGAGGGTTAGTTCTGTTCTTACGAAATGTTTCTGCGGAGTCACCTAGTGCAG
The binding signal of the first is higher: 10700 fluorescence intensity (a.u.) for the first, 8760 fluorescence intensity (a.u.) for the second.

Going from “AGGAGGGTGACTTTTATAGAGGGCTATGGGTGACTAGTTTCGGAGTCACCTAGTGCAG” to “CGGTTTTGTATAGTTTAGGGGTGAAGATTTCTGGTTTTGTCGGAGTCACCTAGTGCAG”, the binding signal rises from 8180 fluorescence intensity (a.u.) to 13500 fluorescence intensity (a.u.).

Compared with “CTTCGAGATGCTATTTTGACCAACGATATTGTGATAGTTTCGGAGTCACCTAGTGCAG”, “TTTTTTTGTTCAGAGACTTCTGCTCTCGGGTTAGTTCGGTCGGAGTCACCTAGTGCAG” is lower in binding signal: 8510 fluorescence intensity (a.u.) for the first, 8340 fluorescence intensity (a.u.) for the second.

First: CTTGCTTTCTGCGTCGTCGTCTGCGTCTTCTTCTTCATTGCGGAGTCACCTAGTGCAG
Second: CGCGTTTTGTATTCTTCGTTCGTATCTTCGTACTAGTCTCCGGAGTCACCTAGTGCAG
The binding signal of the first is higher: 13000 fluorescence intensity (a.u.) for the first, 8240 fluorescence intensity (a.u.) for the second.

Going from “CATCCTAGCTACTGTTCTCTTTTATTTGATCCATCCAATACGGAGTCACCTAGTGCAG” to “AAAATGCCAGGTTGTACTTTGTTTCTACTATAGCTCCTAGCGGAGTCACCTAGTGCAG”, the binding signal falls from 8730 fluorescence intensity (a.u.) to 8250 fluorescence intensity (a.u.).

Going from “CCGTGTATGTTTGTCTATTTGCATATTTCTTGAAAAGACACGGAGTCACCTAGTGCAG” to “GCTTTCCACCCGTTATTAGTGGGCCAGCCCATGAAAACGACGGAGTCACCTAGTGCAG”, the binding signal falls from 9020 fluorescence intensity (a.u.) to 8640 fluorescence intensity (a.u.).

Compared with “CCTCACATTACAGTGACCCACACCTTTGCATGTCGCCTCACGGAGTCACCTAGTGCAG”, “TATCGTCCGGTGCTCCTCGTCCATGTCAACAGCTACCATACGGAGTCACCTAGTGCAG” is lower in binding signal: 12000 fluorescence intensity (a.u.) for the first, 9850 fluorescence intensity (a.u.) for the second.

Compared with “AGTATAAGATTAATATTAATTCATCCATTTCAGTTATTTCCGGAGTCACCTAGTGCAG”, “CAATCCTGGAACTCGATTATTAATTGTATGTTGCCAACCGCGGAGTCACCTAGTGCAG” is higher in binding signal: 8280 fluorescence intensity (a.u.) for the first, 10400 fluorescence intensity (a.u.) for the second.

Going from “CCACTTTTCAAACCACCGAAGGATTCTATTTATATCGGTTCGGAGTCACCTAGTGCAG” to “CATGGTTGTAGTATTTCACTCCTTACAATCTTGACCAATTCGGAGTCACCTAGTGCAG”, the binding signal rises from 8110 fluorescence intensity (a.u.) to 8830 fluorescence intensity (a.u.).

Compared with “TCCATGTTGAATACTTGCTGTTGCCTGCATTGCTTCTGCACGGAGTCACCTAGTGCAG”, “CAGACTCAGTGCTATTTCTGTAGATTATCCTGTGTATTTTCGGAGTCACCTAGTGCAG” is higher in binding signal: 8380 fluorescence intensity (a.u.) for the first, 11900 fluorescence intensity (a.u.) for the second.

Compared with “TACAGAGTTTCTTTCATCATTTCGATCACGCAATTCACATCGGAGTCACCTAGTGCAG”, “GTTGCACGGTCGTGCCTTTCGTTTTTCGATGTTCAATCTACGGAGTCACCTAGTGCAG” is lower in binding signal: 8280 fluorescence intensity (a.u.) for the first, 8200 fluorescence intensity (a.u.) for the second.

First: CGGGAGGAGGGAGGTTGTTTCGTCTGGGGTTTGATTGGGACGGAGTCACCTAGTGCAG
Second: TGTCAACACATTCACCTGTATTTTTGGTATTATCCCATTGCGGAGTCACCTAGTGCAG
The binding signal of the first is higher: 18200 fluorescence intensity (a.u.) for the first, 9910 fluorescence intensity (a.u.) for the second.
